Library screen at single concentrations

Measurements from “University of Dundee, Small-Polar-MMV Screening Library” (2021), ChEMBL document CHEMBL3988442.

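Assay of Toxoplasma gondii numbers, read through their beta-galactosidase reporter with a colour substrate. Tested at 10 µM. The record gives no direction; the compounds picked for IC50 retests had high values, so higher reads as fewer parasites. Of about 67,000 compounds tested this way, about 260 (0.38%) reached 50% or more in at least one test.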

Results are given as percent effect. The controls that fix the scale are not given in the record; negative values are as filed. Compounds were drawn at random from those tested, without regard to their results.

- CN(C)c1cc(CNC(=O)c2cnccn2)ccn1 : 21.24%
- CCc1noc(C)c1C(=O)N1C[C@H](NS(C)(=O)=O)[C@@H](C2CC2)C1 : -57.87%
- Cn1cc(C(O)CNC(=O)Nc2cc(F)ccc2-n2cccn2)cn1 (centres unmarked) : -1.312%
- COc1cc(CNCCC(N)=O)c2c(c1)CC(C)O2 (centres unmarked) : -1.643%
- CCSCCn1cc(-c2ncc[nH]2)nn1 : -4.25%
- Cc1cc(C(N)=O)nc(C2(C)CCCN2Cc2cnn(C)c2)n1 (centres unmarked) : -45.19%
- CS(=O)(=O)N1CC(=O)N(CCCc2ccccc2)CC(O)C1 (centres unmarked) : 8.307%
- O=C(c1ccc(F)cc1F)N1CC[C@H](O)[C@@H](N2CCOCC2)CC1 : -80.18%
- CCC(C)N(Cc1cnc(NC(C)C)nc1)Cc1ccsc1 (centres unmarked) : -9.318%
- CN1CC[C@]2(CN(Cc3cccs3)C[C@H]2c2ccccc2)C1=O : 0.308%
- CN1CCCC2(CCN(C(=O)Cc3cc4c(cc3Cl)OCCO4)C2)C1=O (centres unmarked) : 1.546%
- CCNc1cc2c(nn1)CCN(C(=O)Cc1ccc(C)nc1)C2 : 2.817%
- Cn1cc(CN2CCCC3(CCN3S(C)(=O)=O)C2)cn1 (centres unmarked) : -7.235%
- [H][C@]12CN(c3ncc(F)cn3)C[C@@]1([H])S(=O)(=O)CC[C@@H]2C(=O)N(C)C : 12.28%
- CS(=O)(=O)NCCCNCc1cc(F)ccc1Br : 0.5128%
- COc1ccc(CCC2CCCN(C(=O)CCc3cc(O)no3)C2)cc1 (centres unmarked) : 3.195%
- O=C(c1cccc(F)c1F)N1CCn2c(nnc2C(F)(F)F)C1 : -1.536%
- N#Cc1cccc(NC(=O)C2CCCN2c2nccs2)c1 (centres unmarked) : -41.39%
- Fc1cnc(N2CCN(Cc3ccc(-c4cc[nH]n4)o3)CC2)nc1 : -2.232%
- Cc1cc(C)n(CC2CCCN2C(=O)c2ccc3c(c2)OCCO3)n1 (centres unmarked) : -14.72%
- CCOc1ncccc1C(=O)NC1CCCN(c2ncccn2)C1 (centres unmarked) : 6.778%
- COCc1nn(C(C)C)c2c1CCN(Cc1cccs1)C2.O=C(O)C(F)(F)F : -28.52%
- O=C(Nc1cccnc1)NC(CCCO)c1ccccc1 (centres unmarked) : 4.367%
- CCN1CCN(C(=O)c2cn(Cc3ccccc3)c3ncccc23)CC1 : -25.03%
- O=C(CCn1ccc2ccccc21)Nc1ccnn1CC1CCOC1 (centres unmarked) : 5.718%
- COCC(=O)N1CCN(Cn2nc(C)c(Br)c2C)CC1 : 12.41%
- Cc1cc(C)n(CCC(=O)OCC(=O)N2CCc3sccc3C2)n1 : 1.006%
- COCCN(CC1CCCN(C2Cc3ccccc3C2)C1)C(=O)CSC (centres unmarked) : -7.697%
- Fc1cc(Cl)cnc1N1CCCC(c2nccn2CC2CC2)C1 (centres unmarked) : 33.11%
- CNc1ncc(CN(C)Cc2cc(O)c3cc(F)ccc3n2)cn1 : 9.942%
- N#Cc1cccnc1OC1CCN(S(=O)(=O)c2c(F)cccc2F)CC1 : -34.08%
- CC1c2ncc(COCC3CCOCC3)n2CCN1C(=O)c1ccco1 (centres unmarked) : -1.011%

The last 2 entries again:

* N#Cc1cccnc1OC1CCN(S(=O)(=O)c2c(F)cccc2F)CC1 | -34.08%
* CC1c2ncc(COCC3CCOCC3)n2CCN1C(=O)c1ccco1 (centres unmarked) | -1.011%